Reference: patent US7288567B2, “Inhibitors of histone deacetylase” (Methylgene Inc., priority 2000, dated 2007)

By UniProt entry, the sequences of proteins in these tests, tags left out.
UniProt Q13547, whole entry: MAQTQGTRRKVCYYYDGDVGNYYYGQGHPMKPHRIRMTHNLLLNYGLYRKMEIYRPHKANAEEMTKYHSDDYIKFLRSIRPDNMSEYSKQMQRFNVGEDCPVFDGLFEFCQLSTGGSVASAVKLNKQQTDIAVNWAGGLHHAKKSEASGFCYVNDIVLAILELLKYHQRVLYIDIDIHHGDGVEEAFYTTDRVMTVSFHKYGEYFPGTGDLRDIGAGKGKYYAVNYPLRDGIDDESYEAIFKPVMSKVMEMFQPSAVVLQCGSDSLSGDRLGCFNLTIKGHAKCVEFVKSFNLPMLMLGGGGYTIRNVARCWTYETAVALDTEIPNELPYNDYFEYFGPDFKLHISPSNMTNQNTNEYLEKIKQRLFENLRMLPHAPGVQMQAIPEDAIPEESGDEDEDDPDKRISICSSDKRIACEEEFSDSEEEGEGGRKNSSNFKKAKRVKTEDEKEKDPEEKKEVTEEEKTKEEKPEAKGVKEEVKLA

Legend:
[1] = biological target: recombinant human HDAC-1 enzyme (rHDAC-1) (Homo sapiens, UniProt Q13547); assay: Histone deacetylase inhibition, recombinant human HDAC-1; type: biochemical; settings: read-out: rHDAC-1 IC50, cloned recombinant human HDAC-1, Baculovirus insect cell expression
[2] = system: histone deacetylase enzyme in nuclear extracts from H446 cells (pooled HDACs); assay: Histone deacetylase inhibition, H446 nuclear extracts (pooled HDACs); type: biochemical, human; settings: read-out: pooled HDACs IC50; H446 nuclear extract, [3H]-acetylated histone substrate

For O=C(CCCCCCC(=O)c1ccc(-c2ccccc2)cc1)Nc1nccs1, the IC50 [1] was 23 µM.

Molecule O=C(CCCCCC(=O)c1ccc2ccccc2c1)NO has an IC50 [2] of 350 nM.

Molecule Nc1ccccc1NC(=O)CCCCCCC(=O)c1ccc(-c2ccc(Br)cc2)cc1 has an IC50 ([1]; tested form: HCl) of 4 µM.

Like-named read-outs stand apart in the source and are kept apart here. The structures given here were assigned with low confidence; some may be wrong.
